Experimental data taken from patent publication US20160074509A1.
No constants are given. Whether binding was seen depends on the method and setting. Some binding calls cover weakened binding; strength is not graded here.

Target: T1, N-terminally biotinylated O-Q11
T1 sequence (peptide, single biotin tag at the N-terminus, directly adjacent to the OVA sequence): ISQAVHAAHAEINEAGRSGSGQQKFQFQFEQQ
Test: TEM, 5 nm streptavidin-gold staining of fibrils

binding: binds
Substance: 5 nm colloidal gold conjugated to streptavidin (Sigma) (from UniProt P22629 37-163)
